The target of the assay is GLP-1R in PathHunter CHO-K1-βarr2-EA-GLP-1R cells (UniProt P43220). Put plainly: split reporter; PathHunter CHO-K1-βarr2-EA-GLP-1R cells stimulated with agonist (semaglutide or GL0034) for 30 minutes at 37°C in Ham's F12 without FBS; luminescence after lysis with PathHunter detection reagents.

Protein sequences, listed by entry. Tags and fused reporters are not part of them. Residues count along the entry.
UniProt P43220, residues 24-463: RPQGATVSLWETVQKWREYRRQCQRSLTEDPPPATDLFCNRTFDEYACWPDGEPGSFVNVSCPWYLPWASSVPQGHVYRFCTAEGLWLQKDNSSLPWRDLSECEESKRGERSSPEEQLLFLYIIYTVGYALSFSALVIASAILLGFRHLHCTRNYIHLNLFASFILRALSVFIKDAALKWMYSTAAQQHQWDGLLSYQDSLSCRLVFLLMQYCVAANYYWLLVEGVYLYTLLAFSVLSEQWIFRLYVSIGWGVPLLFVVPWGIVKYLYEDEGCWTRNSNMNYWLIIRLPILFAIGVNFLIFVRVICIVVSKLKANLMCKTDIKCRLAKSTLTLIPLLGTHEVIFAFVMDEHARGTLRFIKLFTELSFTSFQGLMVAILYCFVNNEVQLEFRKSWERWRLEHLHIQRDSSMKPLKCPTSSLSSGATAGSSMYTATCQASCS
UniProt P32121: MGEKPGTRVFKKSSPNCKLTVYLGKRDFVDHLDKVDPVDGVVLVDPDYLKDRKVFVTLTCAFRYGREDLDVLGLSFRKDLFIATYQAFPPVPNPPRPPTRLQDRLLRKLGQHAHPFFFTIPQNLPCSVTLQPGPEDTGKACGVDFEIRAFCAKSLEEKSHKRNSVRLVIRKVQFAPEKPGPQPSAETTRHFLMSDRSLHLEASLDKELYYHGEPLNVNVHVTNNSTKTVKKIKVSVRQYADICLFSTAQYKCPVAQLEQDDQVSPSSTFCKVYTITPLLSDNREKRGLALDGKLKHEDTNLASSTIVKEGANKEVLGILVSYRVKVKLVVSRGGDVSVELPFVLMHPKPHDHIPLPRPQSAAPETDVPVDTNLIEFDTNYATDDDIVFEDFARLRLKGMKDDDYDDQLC

These are yes or no findings as the source states them, for the method shown. Binding seen in cells or lysates may run through a third protein. Some results given as binding are weak or reduced against the parent protein; the word gives no strength.

For the substance “β-arrestin-2 (βarr2-EA) in PathHunter CHO-K1-βarr2-EA-GLP-1R cells (from UniProt P32121 1-409)”, the binding result was “binds”.

The values above are taken from article PMC9796023, “In vivo and in vitro characterization of GL0034, a novel long‐acting glucagon‐like peptide‐1 receptor agonist” (Diabetes, Obesity & Metabolism, 2022).
